# Measurements taken from patent US9725402B2, “Nitroso compounds as nitroxyl donors and methods of use thereof” (priority 2008, dated 2017).
# Assay: HNO production via N2O quantification (GC headspace), with and without Pig Liver Esterase
# Assay type: physicochemical
# Settings: with and also without Pig Liver Esterase (PLE), 37° C., 90 minutes, PBS buffer pH 7.4
row,SMILES,HNO production (N2O quantification)
1,"CC(=O)OC1(N=O)CCSC1 (stereo not shown) [Compound 5, 3-Nitrosotetrahydrothiophen-3-yl acetate]",detectable levels of HNO
2,"O=NC1(OC(=O)C(F)(F)C(F)(F)F)CCCCC1 [Compound 18, 1-Nitrosocyclohexyl 2,2,3,3,3-pentafluoropropanoate]",detectable levels of HNO
3,"CCOP(=O)(OCC)OC1(N=O)CCCCC1 [Compound 25, Diethyl 1-nitrosocyclohexyl phosphate]",detectable levels of HNO
4,"CCCCOP(=O)(OCCCC)OC1(N=O)CCCCC1 [Compound 26, Dibutyl 1-nitrosocyclohexyl phosphate]",detectable levels of HNO
5,"CC(=O)OCC(COC(C)=O)CC(=O)OC1(N=O)CCOCC1 [Compound 36, 4-Nitrosotetrahydro-2H-pyran-4-yl 4-acetoxy-3-(acetoxymethyl)butanoate]",detectable levels of HNO
6,"O=NC1(OC(=O)CCC(F)(F)F)CCOCC1 [Compound 17, 4-Nitrosotetrahydro-2H-pyran-4-yl 4,4,4-trifluorobutanoate]",detectable levels of HNO
7,"CC(=O)OCC(=CC(=O)OC1(N=O)CCOCC1)COC(C)=O [Compound 48, 4-Nitrosotetrahydro-2H-pyran-4-yl 4-(acetyloxy)-3-[(acetyloxy)methyl]but-2-enoate]",detectable levels of HNO
8,"CC(=O)OC1(N=O)CC(C)(C)N(C)C(C)(C)C1 [Compound 7, 1,2,2,6,6-Pentamethyl-4-nitrosopiperidin-4-yl acetate]",detectable levels of HNO
9,"CC(=O)OCC(C)(COC(C)=O)C(=O)OC1(N=O)CCOCC1 [Compound 35, 2-Methyl-2-((4-nitrosotetrahydro-2H-pyran-4-yloxy)carbonyl)propane-1,3-diyl diacetate]",detectable levels of HNO
10,"O=NC1(OC(=O)CCC2CCC(=O)O2)CCOCC1 (stereo not shown) [Compound 33, 4-Nitrosotetrahydro-2H-pyran-4-yl 3-(5-oxotetrahydrofuran-2-yl)propanoate]",detectable levels of HNO
11,"COC(=O)[C@H](CC(=O)OC1(N=O)CCOCC1)NC(=O)OCc1ccccc1 [Compound 37, 1-Methyl 4-(4-nitrosotetrahydro-2H-pyran-4-yl) N-[(benzyloxy)carbonyl]aspartate]",detectable levels of HNO
12,"O=NC1(OC(=O)C(Cl)(Cl)Cl)CCOCC1 [Compound 20, 4-Nitrosotetrahydro-2H-pyran-4-yl 2,2,2-trichloroacetate]",detectable levels of HNO
13,"O=NC1(OC(=O)CC(F)(F)F)CCOCC1 [Compound 16, 4-Nitrosotetrahydro-2H-pyran-4-yl 3,3,3-trifluoropropanoate]",detectable levels of HNO
14,"O=NC1(OC(=O)C(F)(F)Cl)CCOCC1 [Compound 22, 4-Nitrosotetrahydro-2H-pyran-4-yl 2-chloro-2,2-difluoroacetate]",detectable levels of HNO
15,"O=NC1(OC(=O)C(F)(F)F)CCOCC1 [Compound 15, 4-Nitrosotetrahydro-2H-pyran-4-yl 2,2,2-trifluoroacetate]",detectable levels of HNO
16,"CC(=O)OC1(N=O)CCN(C)CC1 [Compound 1, 1-Methyl-4-nitrosopiperidin-4-yl acetate]",detectable levels of HNO
17,"CC(=O)OCCCC(=O)OC1(N=O)CCOCC1 [Compound 44, 4-Nitrosotetrahydro-2H-pyran-4-yl 4-acetoxybutanoate]",detectable levels of HNO
18,"CC(C)C(=O)OC1(N=O)CCCCC1 [Compound 10, 1-Nitrosocyclohexyl isobutyrate]",detectable levels of HNO
19,"CC(=O)N[C@@H](Cc1ccccc1)C(=O)OC1(N=O)CCOCC1 [Compound 23, (S)-4-Nitrosotetrahydro-2H-pyran-4-yl 2-acetamido-3-phenylpropanoate]",detectable levels of HNO
20,"CC(=O)OC1(N=O)CC2CCC(C1)N2C (stereo not shown) [Compound 39, 8-Methyl-3-nitroso-8-azabicyclo[3.2.1]oct-3-yl acetate]",detectable levels of HNO
21,"CC(=O)OC[C@H](OC(C)=O)[C@H](OC(C)=O)C(=O)OC1(N=O)CCOCC1 [Compound 50, 4-Nitrosotetrahydro-2H-pyran-4-yl (2S,3S)-2,3,4-tris(acetyloxy)butanoate]",detectable levels of HNO
22,"CC(C)(C)OC(=O)N[C@@H](CC(=O)OC1(N=O)CCOCC1)C(=O)OC(C)(C)C [Compound 38, 1-tert-Butyl 4-(4-nitrosotetrahydro-2H-pyran-4-yl) N-(tert-butoxycarbonyl)aspartate]",detectable levels of HNO
23,"CC(=O)OCC(COC(C)=O)CC(=O)OC1(N=O)CCN(C)CC1 [Compound 49, 1-Methyl-4-nitrosopiperidin-4-yl 4-(acetyloxy)-3-[(acetyloxy)methyl]butanoate]",detectable levels of HNO
24,"O=NC1(OC(=O)C(F)(F)C(F)(F)F)CCOCC1 [Compound 21, 4-Nitrosotetrahydro-2H-pyran-4-yl 2,2,3,3,3-pentafluoropropanoate]",detectable levels of HNO
25,"O=NC1(OC(=O)CNC(=O)c2ccccc2)CCOCC1 [Compound 31, 4-Nitrosotetrahydro-2H-pyran-4-yl 2-benzamidoacetate]",detectable levels of HNO
